# In the supplement of paper PMC8728848:
# The other results are listed elsewhere or left out.
# B1: NKp30 (Homo sapiens), O14931 (protein)
# chain: LWVSQPPEIRTLEGSSAFLPCSFNASQGRLAIGSVTWFRDEVVPGKEVRNGTPEFRGRLAPLASSRFLHDHQAELHIRDVRGHDASIYVCRVEVLGLGVGTGNGTRLVVEKEHPQLG
# Experiments:
# Assay in all cases: glycan array binding signal (z-score within array); higher = stronger binding
# Conditions in all cases: glycan notation: IUPAC condensed, linker removed
# [1] = molecular target: Gal(b1-3)[Neu5Ac(a2-6)]GlcNAc(a1-4)Gal(b1-4)Glc
# Procedure, shortened: (§1)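 The binding signal is a Z-score computed within each array. Data were drawn from 3228 arrays in the Consortium for Functional Glycomics database, restricted to those with a known protein sequence. Scores were averaged over arrays of the same protein sequence at different concentrations or buffers, and over linkers, and negative values can be taken as non-binding.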
# [2] = molecular target: Gal(b1-3)[Neu5Ac(b2-6)]GlcNAc
# Procedure, shortened: as §1
# [3] = molecular target: Gal(b1-4)GalNAc(a1-3)[Fuc(a1-2)]Gal(b1-4)GlcNAc
# Procedure, shortened: as §1
# [4] = molecular target: Gal(b1-4)GalNAc(b1-3)[Fuc(a1-2)]Gal(b1-4)GlcNAc
# Procedure, shortened: as §1
# [5] = molecular target: Gal(b1-4)Glc
# Procedure, shortened: as §1
# [6] = molecular target: Gal(b1-4)Glc6S
# Procedure, shortened: as §1
# [7] = molecular target: Gal(b1-4)GlcNAc
# Procedure, shortened: as §1
# [8] = molecular target: Gal(b1-4)GlcNAc(b1-2)Man(a1-3)[Gal(b1-4)GlcNAc(b1-2)Man(a1-6)]Man(b1-4)GlcNAc(b1-4)GlcNAc
# Procedure, shortened: as §1
# [9] = molecular target: Gal(b1-4)GlcNAc(b1-3)Gal(b1-3)GlcNAc
# Procedure, shortened: as §1
# [10] = molecular target: Gal(b1-4)GlcNAc(b1-3)Gal(b1-4)Glc
# Procedure, shortened: as §1
# [11] = molecular target: Gal(b1-4)GlcNAc(b1-3)Gal(b1-4)GlcNAc
# Procedure, shortened: as §1
# [12] = molecular target: Gal(b1-4)GlcNAc(b1-3)Gal(b1-4)GlcNAc(b1-3)Gal(b1-4)GlcNAc
# Procedure, shortened: as §1
# [13] = molecular target: Gal(b1-4)GlcNAc(b1-3)Gal(b1-4)[Fuc(a1-3)]GlcNAc(b1-3)Gal(b1-4)[Fuc(a1-3)]GlcNAc
# Procedure, shortened: as §1
# [14] = molecular target: Gal(b1-4)GlcNAc(b1-3)GalNAc
# Procedure, shortened: as §1
# [15] = molecular target: Gal(b1-4)GlcNAc(b1-3)[Gal(b1-4)GlcNAc(b1-6)]GalNAc
# Procedure, shortened: as §1
# [16] = molecular target: Gal(b1-4)GlcNAc(b1-6)GalNAc
# Procedure, shortened: as §1
# [17] = molecular target: Gal(b1-4)GlcNAc(b1-6)[Gal(b1-3)]GalNAc
# Procedure, shortened: as §1
# [18] = molecular target: Gal(b1-4)GlcNAc(b1-6)[Gal(b1-3)]GlcNAc
# Procedure, shortened: as §1
# [19] = molecular target: Gal3S(b1-3)GalNAc
# Procedure, shortened: as §1
# [20] = molecular target: Gal3S(b1-3)GlcNAc
# Procedure, shortened: as §1
# [21] = molecular target: Gal3S(b1-3)[Fuc(a1-4)]GlcNAc
# Procedure, shortened: as §1
# [22] = molecular target: Gal3S(b1-4)Glc
# Procedure, shortened: as §1
# [23] = molecular target: Gal3S(b1-4)Glc6S
# Procedure, shortened: as §1
# [24] = molecular target: Gal3S(b1-4)GlcNAc
# Procedure, shortened: as §1
# [25] = molecular target: Gal3S(b1-4)GlcNAc6S
# Procedure, shortened: as §1
# [26] = molecular target: Gal3S6S(b1-4)GlcNAc
# Procedure, shortened: as §1
# [27] = molecular target: Gal3S6S(b1-4)GlcNAc6S
# Procedure, shortened: as §1
# [28] = molecular target: Gal4S(b1-4)GlcNAc
# Procedure, shortened: as §1
# [29] = molecular target: Gal4S6S(b1-4)GlcNAc
# Procedure, shortened: as §1
# [30] = molecular target: Gal6S(b1-4)Glc
# Procedure, shortened: as §1
# [31] = molecular target: Gal6S(b1-4)Glc6S
# Procedure, shortened: as §1
# [32] = molecular target: Gal6S(b1-4)GlcNAc
# Procedure, shortened: as §1
# [33] = molecular target: GalNAc(a1-3)Gal
# Procedure, shortened: as §1
# [34] = molecular target: GalNAc(a1-3)GalNAc
# Procedure, shortened: as §1
# [35] = molecular target: GalNAc(b1-3)Gal(a1-4)Gal(b1-4)GlcNAc
# Procedure, shortened: as §1
# [36] = molecular target: GalNAc(b1-4)GlcNAc
# Procedure, shortened: as §1
# [37] = molecular target: Glc(a1-4)Glc
# Procedure, shortened: as §1
# [38] = molecular target: Glc(a1-6)Glc(a1-6)Glc
# Procedure, shortened: as §1
# [39] = molecular target: Glc(b1-4)Glc
# Procedure, shortened: as §1
# [40] = molecular target: Glc(b1-6)Glc
# Procedure, shortened: as §1
# [41] = molecular target: GlcA(b1-3)Gal
# Procedure, shortened: as §1
# [42] = molecular target: GlcA(b1-6)Gal
# Procedure, shortened: as §1
# [43] = molecular target: GlcNAc(a1-3)Gal(b1-4)GlcNAc
# Procedure, shortened: as §1
# [44] = molecular target: GlcNAc(a1-6)Gal(b1-4)GlcNAc
# Procedure, shortened: as §1
# [45] = molecular target: GlcNAc(b1-2)Gal(b1-3)GlcNAc
# Procedure, shortened: as §1
# [46] = molecular target: GlcNAc(b1-2)Man(a1-3)[GlcNAc(b1-2)Man(a1-6)]Man(b1-4)GlcNAc(b1-4)GlcNAc
# Procedure, shortened: as §1
# [47] = molecular target: GlcNAc(b1-3)Gal
# Procedure, shortened: as §1
# [48] = molecular target: GlcNAc(b1-3)Gal(b1-3)GalNAc
# Procedure, shortened: as §1
# [49] = molecular target: GlcNAc(b1-3)Gal(b1-4)Glc
# Procedure, shortened: as §1
# [50] = molecular target: GlcNAc(b1-3)Gal(b1-4)GlcNAc
# Procedure, shortened: as §1
# [51] = molecular target: GlcNAc(b1-3)Gal(b1-4)GlcNAc(b1-3)Gal(b1-4)GlcNAc
# Procedure, shortened: as §1
# [52] = molecular target: GlcNAc(b1-3)GalNAc
# Procedure, shortened: as §1
# [53] = molecular target: GlcNAc(b1-3)[GlcNAc(b1-4)][GlcNAc(b1-6)]GlcNAc
# Procedure, shortened: as §1
# [54] = molecular target: GlcNAc(b1-3)[GlcNAc(b1-6)]Gal(b1-4)GlcNAc
# Procedure, shortened: as §1
# [55] = molecular target: GlcNAc(b1-3)[GlcNAc(b1-6)]GlcNAc
# Procedure, shortened: as §1
# [56] = molecular target: GlcNAc(b1-4)Gal(b1-4)GlcNAc
# Procedure, shortened: as §1
# [57] = molecular target: GlcNAc(b1-4)GlcNAc(b1-4)GlcNAc
# Procedure, shortened: as §1
# [58] = molecular target: GlcNAc(b1-4)GlcNAc(b1-4)GlcNAc(b1-4)GlcNAc(b1-4)GlcNAc
# Procedure, shortened: as §1
# [59] = molecular target: GlcNAc(b1-4)GlcNAc(b1-4)GlcNAc(b1-4)GlcNAc(b1-4)GlcNAc(b1-4)GlcNAc
# Procedure, shortened: as §1
# [60] = molecular target: GlcNAc(b1-4)[GlcNAc(b1-6)]GalNAc
# Procedure, shortened: as §1
# [61] = molecular target: GlcNAc(b1-6)Gal(b1-4)GlcNAc
# Procedure, shortened: as §1
# [62] = molecular target: GlcNAc(b1-6)GalNAc
# Procedure, shortened: as §1
# [63] = molecular target: Kdn(a2-3)Gal(b1-3)GlcNAc
# Procedure, shortened: as §1
# [64] = molecular target: Kdn(a2-3)Gal(b1-4)GlcNAc
# Procedure, shortened: as §1
# [65] = molecular target: Man(a1-2)Man(a1-2)Man(a1-3)Man
# Procedure, shortened: as §1
# [66] = molecular target: Man(a1-2)Man(a1-2)Man(a1-3)[Man(a1-2)Man(a1-3)[Man(a1-2)Man(a1-6)]Man(a1-6)]Man(b1-4)GlcNAc(b1-4)GlcNAc
# Procedure, shortened: as §1
# [67] = molecular target: Man(a1-2)Man(a1-2)Man(a1-3)[Man(a1-2)Man(a1-6)[Man(a1-3)]Man(a1-6)]Man(b1-4)GlcNAc(b1-4)GlcNAc
# Procedure, shortened: as §1
# [68] = molecular target: Man(a1-2)Man(a1-2)Man(a1-6)[Man(a1-3)]Man
# Procedure, shortened: as §1
# [69] = molecular target: Man(a1-2)Man(a1-3)Man
# Procedure, shortened: as §1
# [70] = molecular target: Man(a1-2)Man(a1-3)[Man(a1-2)Man(a1-6)]Man
# Procedure, shortened: as §1
# [71] = molecular target: Man(a1-2)Man(a1-3)[Man(a1-3)[Man(a1-6)]Man(a1-6)]Man(b1-4)GlcNAc(b1-4)GlcNAc
# Procedure, shortened: as §1
# [72] = molecular target: Man(a1-2)Man(a1-3)[Man(a1-6)]Man(a1-6)[Man(a1-2)Man(a1-3)]Man(b1-4)GlcNAc(b1-4)GlcNAc
# Procedure, shortened: as §1
# [73] = molecular target: Man(a1-3)[Man(a1-6)]Man
# Procedure, shortened: as §1
# [74] = molecular target: Man(a1-3)[Man(a1-6)]Man(a1-6)[Man(a1-3)]Man(b1-4)GlcNAc(b1-4)GlcNAc
# Procedure, shortened: as §1
# [75] = molecular target: Man(a1-3)[Man(a1-6)]Man(b1-4)GlcNAc(b1-4)GlcNAc
# Procedure, shortened: as §1
binder,measurement,setting,value
B1,glycan array binding signal (z-score),[1],-0.123
same,glycan array binding signal (z-score),[2],-0.988
same,glycan array binding signal (z-score),[3],-0.961
same,glycan array binding signal (z-score),[4],-1.16
same,glycan array binding signal (z-score),[5],-0.071
same,glycan array binding signal (z-score),[6],1.09
same,glycan array binding signal (z-score),[7],-0.275
same,glycan array binding signal (z-score),[8],-0.644
same,glycan array binding signal (z-score),[9],0.493
same,glycan array binding signal (z-score),[10],0.852
same,glycan array binding signal (z-score),[11],0.468
same,glycan array binding signal (z-score),[12],0.321
same,glycan array binding signal (z-score),[13],-0.177
same,glycan array binding signal (z-score),[14],-0.19
same,glycan array binding signal (z-score),[15],-0.011
same,glycan array binding signal (z-score),[16],-0.924
same,glycan array binding signal (z-score),[17],0.262
same,glycan array binding signal (z-score),[18],-0.864
same,glycan array binding signal (z-score),[19],0.973
same,glycan array binding signal (z-score),[20],0.979
same,glycan array binding signal (z-score),[21],0.407
same,glycan array binding signal (z-score),[22],0.281
same,glycan array binding signal (z-score),[23],2.3
same,glycan array binding signal (z-score),[24],1.22
same,glycan array binding signal (z-score),[25],2.56
same,glycan array binding signal (z-score),[26],2.28
same,glycan array binding signal (z-score),[27],2.38
same,glycan array binding signal (z-score),[28],0.597
same,glycan array binding signal (z-score),[29],2.56
same,glycan array binding signal (z-score),[30],0.742
same,glycan array binding signal (z-score),[31],2.44
same,glycan array binding signal (z-score),[32],1.02
same,glycan array binding signal (z-score),[33],-0.637
same,glycan array binding signal (z-score),[34],-0.861
same,glycan array binding signal (z-score),[35],-0.721
same,glycan array binding signal (z-score),[36],-0.638
same,glycan array binding signal (z-score),[37],-0.398
same,glycan array binding signal (z-score),[38],-0.195
same,glycan array binding signal (z-score),[39],-0.431
same,glycan array binding signal (z-score),[40],0.138
same,glycan array binding signal (z-score),[41],0.249
same,glycan array binding signal (z-score),[42],-0.664
same,glycan array binding signal (z-score),[43],-1.04
same,glycan array binding signal (z-score),[44],-0.667
same,glycan array binding signal (z-score),[45],-0.803
same,glycan array binding signal (z-score),[46],-0.919
same,glycan array binding signal (z-score),[47],-0.803
same,glycan array binding signal (z-score),[48],-0.541
same,glycan array binding signal (z-score),[49],-0.679
same,glycan array binding signal (z-score),[50],-0.558
same,glycan array binding signal (z-score),[51],-0.728
same,glycan array binding signal (z-score),[52],0.542
same,glycan array binding signal (z-score),[53],-0.854
same,glycan array binding signal (z-score),[54],-0.572
same,glycan array binding signal (z-score),[55],-0.653
same,glycan array binding signal (z-score),[56],-0.76
same,glycan array binding signal (z-score),[57],1.71
same,glycan array binding signal (z-score),[58],-0.274
same,glycan array binding signal (z-score),[59],-0.128
same,glycan array binding signal (z-score),[60],-0.848
same,glycan array binding signal (z-score),[61],-0.869
same,glycan array binding signal (z-score),[62],-0.441
same,glycan array binding signal (z-score),[63],-0.28
same,glycan array binding signal (z-score),[64],-0.15
same,glycan array binding signal (z-score),[65],-0.642
same,glycan array binding signal (z-score),[66],-0.291
same,glycan array binding signal (z-score),[67],-0.461
same,glycan array binding signal (z-score),[68],-0.41
same,glycan array binding signal (z-score),[69],-0.176
same,glycan array binding signal (z-score),[70],-0.278
same,glycan array binding signal (z-score),[71],-0.809
same,glycan array binding signal (z-score),[72],0.495
same,glycan array binding signal (z-score),[73],-0.713
same,glycan array binding signal (z-score),[74],0.331
same,glycan array binding signal (z-score),[75],-0.487

# A stretch taken from the entries so far, for reference:
binder,measurement,setting,value
B1,glycan array binding signal (z-score),[19],0.973
same,glycan array binding signal (z-score),[20],0.979
same,glycan array binding signal (z-score),[21],0.407
same,glycan array binding signal (z-score),[22],0.281
